Source: doi:10.1101/2024.07.09.602679 (bioRxiv, 2024)
No constants are given. Whether binding was seen depends on the method and setting. Some entries that bind do so weakly or less than the wild type. Tags and fused reporters may be left off the sequences shown. Each block holds one molecule with its values, some of them ahead of it.

T1: SmE with N-terminal His6-TEV tag (S. cerevisiae) (UniProt Q12330)
T1 sequence: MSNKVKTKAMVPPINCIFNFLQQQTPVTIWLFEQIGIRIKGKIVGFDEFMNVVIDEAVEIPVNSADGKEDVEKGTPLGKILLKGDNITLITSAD

T2: SmG with N-terminal His6-TEV tag (S. cerevisiae) (UniProt P40204)
T2 sequence: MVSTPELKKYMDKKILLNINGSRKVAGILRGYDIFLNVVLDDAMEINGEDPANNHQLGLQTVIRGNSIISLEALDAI

T3: SmD3/B subcomplex with the His6-TEV tag on SmB (S. cerevisiae) (UniProt P40018+P43321)
T3 sequence 1: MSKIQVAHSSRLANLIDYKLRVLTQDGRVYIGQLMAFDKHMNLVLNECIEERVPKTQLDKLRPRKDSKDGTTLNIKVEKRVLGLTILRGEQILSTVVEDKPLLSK
T3 sequence 2: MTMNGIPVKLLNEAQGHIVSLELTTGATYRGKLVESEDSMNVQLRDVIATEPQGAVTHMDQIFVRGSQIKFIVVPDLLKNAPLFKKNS

T4: SmD2 with N-terminal His6-TEV tag (S. cerevisiae) (UniProt Q06217)
T4 sequence: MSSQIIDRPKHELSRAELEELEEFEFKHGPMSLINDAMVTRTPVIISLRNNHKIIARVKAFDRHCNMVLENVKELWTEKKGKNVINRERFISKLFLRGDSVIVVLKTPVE

T5: Brr1Δ(122-197) with N-terminal His6-TEV tag (S. cerevisiae) (UniProt Q99177)
T5 sequence: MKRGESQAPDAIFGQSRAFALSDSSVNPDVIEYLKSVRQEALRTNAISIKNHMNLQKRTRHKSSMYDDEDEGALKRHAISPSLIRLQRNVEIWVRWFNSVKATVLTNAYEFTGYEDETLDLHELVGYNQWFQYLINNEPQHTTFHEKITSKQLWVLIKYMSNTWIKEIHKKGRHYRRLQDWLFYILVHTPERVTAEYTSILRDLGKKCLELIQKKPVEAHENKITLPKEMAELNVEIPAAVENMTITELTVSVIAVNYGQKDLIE

T6: Lot5 (residues 1-227) with N-terminal His6-TEV tag (S. cerevisiae) (UniProt P34234)
T6 sequence: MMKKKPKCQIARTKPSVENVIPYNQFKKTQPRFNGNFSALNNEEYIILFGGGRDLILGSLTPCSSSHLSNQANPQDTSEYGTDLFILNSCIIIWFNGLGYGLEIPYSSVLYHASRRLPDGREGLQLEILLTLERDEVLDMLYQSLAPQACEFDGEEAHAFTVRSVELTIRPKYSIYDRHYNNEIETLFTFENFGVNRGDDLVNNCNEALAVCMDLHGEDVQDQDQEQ

T7: SmB (residues 1-105) with N-terminal His6-TEV tag (S. cerevisiae) (UniProt P40018)
T7 sequence: T3 sequence 1

T8: D1/D2/F/E/G pentamer (5Sm) (S. cerevisiae, UniProt Q02260 1-109; Q06217 1-110; P54999 1-86; Q12330 1-94; P40204 1-77)
T8 sequence (looked up) 1: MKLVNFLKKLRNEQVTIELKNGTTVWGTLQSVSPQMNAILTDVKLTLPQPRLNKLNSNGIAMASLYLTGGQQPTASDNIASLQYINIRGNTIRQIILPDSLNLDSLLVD
T8 sequence (looked up) 2: T4 sequence
T8 sequence (looked up) 3: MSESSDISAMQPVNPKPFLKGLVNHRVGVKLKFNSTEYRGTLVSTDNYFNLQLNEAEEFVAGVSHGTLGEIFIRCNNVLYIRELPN
T8 sequence (looked up) 4: T1 sequence
T8 sequence (looked up) 5: T2 sequence

T9: Brr1/5Sm heterohexamer (S. cerevisiae, UniProt Q99177 1-341; Q02260 1-109; Q06217 1-110; P54999 1-86; Q12330 1-94; P40204 1-77)
T9 sequence (looked up) 1: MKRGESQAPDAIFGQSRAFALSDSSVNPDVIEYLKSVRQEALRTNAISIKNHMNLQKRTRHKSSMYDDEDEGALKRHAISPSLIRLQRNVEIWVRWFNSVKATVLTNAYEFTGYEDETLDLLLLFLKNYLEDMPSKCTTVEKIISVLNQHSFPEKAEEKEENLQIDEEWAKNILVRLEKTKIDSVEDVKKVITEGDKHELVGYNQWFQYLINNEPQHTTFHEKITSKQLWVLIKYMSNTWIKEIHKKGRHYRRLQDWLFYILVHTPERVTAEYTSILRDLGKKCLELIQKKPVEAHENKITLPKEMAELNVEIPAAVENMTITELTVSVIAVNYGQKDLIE
T9 sequence (looked up) 2: T8 sequence (looked up) 1
T9 sequence (looked up) 3: T4 sequence
T9 sequence (looked up) 4: T8 sequence (looked up) 3
T9 sequence (looked up) 5: T1 sequence
T9 sequence (looked up) 6: T2 sequence

T10: full-length Brr1 with N-terminal His6-TEV tag (S. cerevisiae) (UniProt Q99177)
T10 sequence: T9 sequence (looked up) 1

B1: full-length Brr1, HT-tag removed (natural protein, S. cerevisiae, UniProt Q99177 1-341, looked up)
chain: T9 sequence (looked up) 1
B2: SmD1 (residues 1-109) (domain or fragment, UniProt Q02260 1-109)
chain: T8 sequence (looked up) 1
B3: extra helical domain (EHD) of Brr1 (116-197) (domain or fragment, UniProt Q99177 116-197)
chain: DETLDLLLLFLKNYLEDMPSKCTTVEKIISVLNQHSFPEKAEEKEENLQIDEEWAKNILVRLEKTKIDSVEDVKKVITEGDK
B4: Lot5 (residues 1-227) with N-terminal His6-TEV tag (domain or fragment, S. cerevisiae, UniProt P34234 1-227, looked up)
chain: T6 sequence
B5: SmD3 (residues 1-88) (domain or fragment, UniProt P43321 1-88)
chain: T3 sequence 2
B6: SmD3/B subcomplex, HT-tag removed (complex, S. cerevisiae)
chain 1: T3 sequence 1
chain 2: T3 sequence 2

Tests used:
[1] = target: T1, SmE with N-terminal His6-TEV tag (S. cerevisiae); assay: co-purification after co-expression
[2] = target: T2, SmG with N-terminal His6-TEV tag (S. cerevisiae); assay: co-purification after co-expression
[3] = target: B1; assay: SEC
[4] = target: reconstituted Sm core with the HT-tag on SmB (S. cerevisiae) (UniProt Q02260); assay: pull-down
[5] = target: T3, SmD3/B subcomplex with the His6-TEV tag on SmB (S. cerevisiae); assay: pull-down
[6] = target: T4, SmD2 with N-terminal His6-TEV tag (S. cerevisiae); assay: co-purification after co-expression
[7] = target: T4, SmD2 with N-terminal His6-TEV tag (S. cerevisiae); assay: SEC
[8] = target: T5, Brr1Δ(122-197) with N-terminal His6-TEV tag (S. cerevisiae); assay: pull-down
[9] = target: T6, Lot5 (residues 1-227) with N-terminal His6-TEV tag (S. cerevisiae); assay: SEC
[10] = target: T7, SmB (residues 1-105) with N-terminal His6-TEV tag (S. cerevisiae); assay: co-purification after co-expression
[11] = target: T7, SmB (residues 1-105) with N-terminal His6-TEV tag (S. cerevisiae); assay: SEC
[12] = target: T8, D1/D2/F/E/G pentamer (5Sm); assay: SEC
Brr1/5Sm heterohexamer = target: T9, Brr1/5Sm heterohexamer; assay: pull-down
[13] = target: T10, full-length Brr1 with N-terminal His6-TEV tag (S. cerevisiae); assay: pull-down

- binding [1]: binds
- binding [2]: binds
Molecule: SmF (from UniProt P54999 1-86)

Molecule: B1
- binding [3]: no binding
- binding [4]: no binding
- binding [5]: no binding

Molecule: B2
- binding [6]: binds
- binding [7]: binds

Molecule: B3
- binding [8]: no binding

Molecule: B4
- binding [9]: no binding

Molecule: B5
- binding [10]: binds
- binding [11]: binds

Molecule: B6
- binding [12]: no binding
- binding (Brr1/5Sm heterohexamer): no binding
- binding [13]: no binding
- binding [8]: no binding
